Assay results: paper PMC6497644
No constants are given. Whether binding was seen depends on the method and setting. For some of these results: In cells and extracts the contact can be indirect. Some binding calls cover weakened binding; strength is not graded here. For some of these results: Where a sequence is shown, tags or fusion partners need not be part of it. Values belong to the binder of their own block, whether it stands above or below them.

Assays:
[1] = molecular target: T1, TMEM33-HA (transmembrane protein 33, HA-tagged), transiently expressed (UniProt Q9CR67); test: co-IP; PCT cells transfected with 2.5 ug of each plasmid, lysed 48-72 h later in NEB lysis buffer (150 mM NaCl, 10 mM Tris pH 7.4, 1% Triton X-100, 0.5% NP40); anti-HA 3F10 cross-linked to Protein A or G magnetic beads; Western blot
T1 sequence: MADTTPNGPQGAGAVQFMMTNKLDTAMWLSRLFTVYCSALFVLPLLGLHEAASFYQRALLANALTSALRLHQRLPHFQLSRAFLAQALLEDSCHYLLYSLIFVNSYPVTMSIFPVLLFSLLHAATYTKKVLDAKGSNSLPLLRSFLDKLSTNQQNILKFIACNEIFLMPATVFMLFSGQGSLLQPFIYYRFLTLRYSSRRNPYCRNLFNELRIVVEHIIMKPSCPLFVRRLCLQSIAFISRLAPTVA

[2] = molecular target: T2, HA-PC2 (polycystin-2, HA-tagged) (UniProt Q13563); test: as above
T2 sequence: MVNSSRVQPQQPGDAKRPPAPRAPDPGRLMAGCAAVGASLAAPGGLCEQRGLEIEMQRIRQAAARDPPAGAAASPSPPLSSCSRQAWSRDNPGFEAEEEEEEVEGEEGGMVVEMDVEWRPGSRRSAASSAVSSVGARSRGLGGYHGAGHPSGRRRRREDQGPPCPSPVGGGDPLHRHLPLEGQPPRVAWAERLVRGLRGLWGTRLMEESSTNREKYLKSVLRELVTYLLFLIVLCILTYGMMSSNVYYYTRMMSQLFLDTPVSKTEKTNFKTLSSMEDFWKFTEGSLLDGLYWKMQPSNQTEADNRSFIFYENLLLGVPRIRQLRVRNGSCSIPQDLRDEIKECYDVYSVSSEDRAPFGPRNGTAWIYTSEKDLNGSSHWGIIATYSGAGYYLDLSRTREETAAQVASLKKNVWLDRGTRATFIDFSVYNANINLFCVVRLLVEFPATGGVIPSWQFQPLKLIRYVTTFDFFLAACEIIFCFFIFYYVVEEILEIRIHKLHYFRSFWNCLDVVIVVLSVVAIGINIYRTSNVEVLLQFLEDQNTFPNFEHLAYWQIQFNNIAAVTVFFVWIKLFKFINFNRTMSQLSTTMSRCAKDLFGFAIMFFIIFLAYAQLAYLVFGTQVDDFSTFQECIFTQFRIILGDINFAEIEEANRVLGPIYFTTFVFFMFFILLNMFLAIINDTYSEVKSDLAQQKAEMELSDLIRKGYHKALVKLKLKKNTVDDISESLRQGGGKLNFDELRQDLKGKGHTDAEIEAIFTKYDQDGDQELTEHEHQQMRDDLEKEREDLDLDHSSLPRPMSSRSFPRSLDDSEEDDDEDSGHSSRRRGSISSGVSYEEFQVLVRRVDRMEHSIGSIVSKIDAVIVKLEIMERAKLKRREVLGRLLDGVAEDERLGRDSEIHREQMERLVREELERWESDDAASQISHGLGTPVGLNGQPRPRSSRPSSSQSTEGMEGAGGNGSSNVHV

[3] = molecular target: T3, HA-742X (PC2-742X, pathologic PC2 deletion mutant, HA-tagged) (UniProt Q13563); test: as above
T3 sequence: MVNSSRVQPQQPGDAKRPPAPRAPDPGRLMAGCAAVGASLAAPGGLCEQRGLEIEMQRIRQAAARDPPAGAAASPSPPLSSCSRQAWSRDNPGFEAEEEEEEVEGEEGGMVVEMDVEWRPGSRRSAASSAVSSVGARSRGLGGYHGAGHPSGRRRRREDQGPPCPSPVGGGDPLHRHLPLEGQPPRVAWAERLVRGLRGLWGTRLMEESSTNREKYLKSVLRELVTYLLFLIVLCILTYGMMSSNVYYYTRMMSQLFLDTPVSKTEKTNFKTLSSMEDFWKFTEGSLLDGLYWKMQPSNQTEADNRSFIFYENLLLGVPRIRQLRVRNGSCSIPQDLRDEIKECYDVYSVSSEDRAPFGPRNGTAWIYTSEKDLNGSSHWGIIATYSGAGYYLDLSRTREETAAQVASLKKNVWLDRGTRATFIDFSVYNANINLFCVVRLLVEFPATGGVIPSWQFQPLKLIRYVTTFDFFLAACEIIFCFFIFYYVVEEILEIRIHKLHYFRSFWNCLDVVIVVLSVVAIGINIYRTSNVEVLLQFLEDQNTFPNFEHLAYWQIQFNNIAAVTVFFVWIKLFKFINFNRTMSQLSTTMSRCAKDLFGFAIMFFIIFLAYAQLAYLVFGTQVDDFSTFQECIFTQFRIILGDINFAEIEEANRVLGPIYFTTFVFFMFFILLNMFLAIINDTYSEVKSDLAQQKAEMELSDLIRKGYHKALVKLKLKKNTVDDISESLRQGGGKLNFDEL

[4] = molecular target: T4, HA-TMEM33, conditionally expressed in a stably complemented TMEM33-/- PCT cell line (UniProt Q9CR67); test: co-IP; stably complemented TMEM33-/- PCT cell lines expressing TMEM33-HA or HA-TMEM33 on DOX induction; anti-HA antibody against control rat IgG; native PC2 detected
T4 sequence: T1 sequence

[5] = molecular target: T5, TMEM33-HA, conditionally expressed in a stably complemented TMEM33-/- PCT cell line (UniProt Q9CR67); test: as above
T5 sequence: T1 sequence

[6] = molecular target: T6, TMEM33 C term (amino acids 197–248), in frame with LexA (UniProt Q9CR67); test: two-hybrid; LexA/B42 Grow'n'Glow system, yeast EGY48; bait TMEM33 terminus in frame with LexA, prey PC2 terminus in frame with B42; growth on -HIS-TRP-URA-LEU + galactose and GFP
T6 sequence: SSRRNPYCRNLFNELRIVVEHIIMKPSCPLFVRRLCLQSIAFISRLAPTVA

binding [1]: binds
B1: Myc-PC2 (polycystin-2, Myc-tagged) (protein, UniProt Q13563 1-968)
chain: T2 sequence

binding [2]: binds | binding [3]: binds
B2: Myc-TMEM33 (transmembrane protein 33, Myc-tagged) (protein, UniProt Q9CR67 1-247)
chain: T1 sequence

binding [1]: binds
B3: Myc-742X (PC2-742X, pathologic PC2 deletion mutant, Myc-tagged) (domain or fragment, UniProt Q13563 1-741)
chain: T3 sequence

binding [4]: binds | binding [5]: binds
B4: native polycystin-2 (PC2) of PCT cells (protein, UniProt O35245 1-966)
chain: MVNSRRVQPQPPGDAGRSPAPRASGPGRLVAGGAGLAVPGGLGEQRGLEIEMERIRQAAARDPPAGASASPSPPLSSCSRQAWSRDNPGFEAEEDDDDDEVEGEEGGMVVEMDVEWRPGSRRSASSSAVSSVGARGRGLGSYRGAAHLSGRRRRLEDQGAQCPSPAGGGDPLHRHLPLEGQPPRVAWAERLVRGLRGLWGTRLMEESNANREKYLKSVLRELVTYLFFLVVLCILTYGMMSSNVYYYTRTLSQLFIDTPVSKTEKTNFKTLSSMEDFWKFTEGSFLDGLYWKAQTSNHTQADNRSFIFYENLLLGVPRLRQLRVRNGSCSIPQDLRDEIKECYDVYSVSSEDRAPFGPRNGTAWMYTSEKELNGSSHWGIIASYSGAGYYLDLSRTREETAAQLAGLRRNFWLDRGTRAAFIDFSVYNANINLFCVVRLLAEFPATGGVVPSWQFQPVKLIRYVTAFDFFLAACEIIFCFFIIYYVVEEILEIRIHRLSYFRSFWNCLDVVIVVLSVVAMVINIYRMSNAEGLLQFLEDQNSFPNFEHVAYWQIQFNNISAVMVFLVWIKLFKFINFNRTMSQLSTTMSRCAKDLFGFTIMFSIIFLAYAQLAYLVFGTQVDDFSTFQECIFTQFRIILGDINFAEIEEANRVLGPLYFTTFVFFMFFILLNMFLAIINDSYSEVKSDLAQQKAEMELSDLIRKGCQKALVKLKLKRNTVDAISESLRQGGGKLNFDELRQDLKGKGHTDAEIEAIFTKYDQDGDQELTEREHQQMRDDLEKEREDLDLEHSSLPRPMSSRSFPRSLDDSEEEDDEDSGHSSRRRGSISSGVSYEEFQVLVRRVDRMEHSIGSIVSKIDAVIVKLEIMERAKLKRREVLGRLLDGVAEDARLGRDSEIHREQMERLVREELERWESDDAASQTGHGVSTQVGLGGQPHPRNPRPPSSQSAEGLEGGGGNGSANVHA

binding [6]: binds
B5: PC2 N term (amino acids 1–222), in frame with B42 (domain or fragment, UniProt Q13563 1-222)
chain: MVNSSRVQPQQPGDAKRPPAPRAPDPGRLMAGCAAVGASLAAPGGLCEQRGLEIEMQRIRQAAARDPPAGAAASPSPPLSSCSRQAWSRDNPGFEAEEEEEEVEGEEGGMVVEMDVEWRPGSRRSAASSAVSSVGARSRGLGGYHGAGHPSGRRRRREDQGPPCPSPVGGGDPLHRHLPLEGQPPRVAWAERLVRGLRGLWGTRLMEESSTNREKYLKSVLR
